# Measured values from PubChem BioAssay AID1671190 (National Center for Advancing Translational Sciences (NCATS), 2021).
# Sequences of proteins named here, by UniProt entry; tags and fusion partners are left off. A change or cut given only in a name is not applied to a line headed by its entry.
# UniProt P18054: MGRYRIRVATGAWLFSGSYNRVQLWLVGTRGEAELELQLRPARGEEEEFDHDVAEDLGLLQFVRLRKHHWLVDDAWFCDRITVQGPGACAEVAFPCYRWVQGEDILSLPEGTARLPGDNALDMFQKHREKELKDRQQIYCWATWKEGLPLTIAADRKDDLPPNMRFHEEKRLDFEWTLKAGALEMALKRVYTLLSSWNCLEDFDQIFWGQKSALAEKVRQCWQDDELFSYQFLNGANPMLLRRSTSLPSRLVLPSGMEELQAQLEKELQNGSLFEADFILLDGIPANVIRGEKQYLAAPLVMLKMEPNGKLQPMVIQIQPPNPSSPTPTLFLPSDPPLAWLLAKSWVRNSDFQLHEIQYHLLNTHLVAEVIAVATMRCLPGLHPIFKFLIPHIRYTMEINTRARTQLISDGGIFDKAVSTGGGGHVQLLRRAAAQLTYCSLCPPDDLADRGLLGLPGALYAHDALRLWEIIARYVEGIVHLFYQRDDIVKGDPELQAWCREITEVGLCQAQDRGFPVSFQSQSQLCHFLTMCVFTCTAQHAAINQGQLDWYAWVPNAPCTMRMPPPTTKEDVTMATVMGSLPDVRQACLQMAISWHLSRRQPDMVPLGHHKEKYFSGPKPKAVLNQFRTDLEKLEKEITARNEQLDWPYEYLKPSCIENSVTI
# In all, about 580,000 compounds went through this assay and about 6,100 (1.1%) were called active. Inconclusive results, whose numbers are uncertain, are shown with a selection of clear calls. The call rests on the fitted dose curve; in most records, active means well fitted inhibition curve with a large enough effect; inconclusive means small, poorly fitted or top-dose-only effect, or another doubt; inactive means no such curve, though single readings can be large or run the other way. Potencies of inconclusive entries are doubtful fits and often do not repeat.
# Target: Polyunsaturated fatty acid lipoxygenase ALOX12 (Homo sapiens) (UniProt P18054)
# Experiment: Primary qHTS assay for inhibitors of human arachidonate 12S-lipoxygenase (ALOX12): Round 2
# Conditions: purified 12hLO, xylenol orange hydroperoxide absorbance; activity change, negative = inhibition: at 108 µM (top of the series) unless noted
# How it was run: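 Hydroperoxide product was detected by ferrous iron/xylenol orange as the 573 to 405 nm absorbance ratio. Arachidonic acid at 40 uM (final) was turned over for 30 min at room temperature by 150 nM human 12hLO, pH 7.0 Hepes buffer, after 15 min compound preincubation.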
# On the % scale 0 is the no-effect control and ±100 the full control effect; potency means the concentration at half of the fitted maximal effect.
SMILES,Potency,"activity change, negative = inhibition"
COc1ccccc1NC(=S)NC(=O)/C=C/c1cccs1,active: 35.5 µM,–
COc1ccc(NC(=O)C2CC(=O)N(c3cccc(C)c3C)C2)cc1 (stereo unspecified),"inconclusive: 112 µM [inhibitor, single point]",–
Cc1cc(C)c(S(=O)(=O)N2CCC(C(=O)NCc3csc(-c4ccccc4)n3)CC2)c(C)c1,"inconclusive: 44.7 µM [inhibitor, partial curve, poor fit]",–
COc1c(Cl)cc(Cl)cc1C(=O)Nc1ccc(C(=O)O)cc1,–,inactive: -17.4%
COc1ccccc1NC(=O)Oc1cccc(OC(=O)c2ccccc2)c1,–,inactive: -13.5%
CCC(CC)c1nnc(NC(=O)C2CC(c3ccccc3)=NO2)s1 (stereo unspecified),–,inactive: -0.558%
Cc1[nH]n(S(=O)(=O)Cc2ccccc2)c(=O)c1N=Nc1ccccc1Cl,"inconclusive: 8.91 µM [inhibitor, full curve, poor fit]",–
CCOC(=O)CCc1cnccc1-c1cccc(OC)c1O,"inconclusive: 56.2 µM [inhibitor, partial curve, poor fit]",–
CC(C)(C)C(=O)NC(=S)Nc1ccc(F)cc1,"inconclusive: 50.1 µM [inhibitor, partial curve, poor fit]",–
Cc1ccc(NC(=O)C(C#N)C(=O)CC(C)C)cc1 (stereo unspecified),"inconclusive: 2.82 µM [inhibitor, full curve, poor fit]",–
CN(c1ccc(-c2csc(NC(=O)C3CC(=O)N(Cc4ccco4)C3)n2)cc1)S(C)(=O)=O (stereo unspecified),"inconclusive: 28.2 µM [inhibitor, single point]",–
CCCCCCc1ccc(Nc2cccc(C)c2)cc1O,"inconclusive: 39.8 µM [inhibitor, partial curve, poor fit]",–
CN(C)c1ccc(/C=N/NC(=O)c2nnn(-c3nonc3N)c2CN2CCCCCC2)cc1,–,inactive: 3.99%
COc1ccc(C(=O)/C=C/c2ccc(C)cc2)c(OC)c1,"inconclusive: 50.1 µM [inhibitor, partial curve, poor fit]",–
CS(=O)(=O)c1ccc2nc(N)sc2c1,–,inactive: -2.51%
C/C(=N/O)c1cc(C(C)(C)C)cc2c1CCC2(C)C,–,inactive: 3.13%
OC[C@@H]1CNC[C@H]1c1nc(-c2cccnc2)no1,"inconclusive: 2.82 µM [inhibitor, partial curve, poor fit]",–
CCOC(=O)c1cnc(-n2cc(C)cn2)nc1Nc1ccccc1OC,–,inactive: -14.2%
Cc1c(C(=O)C(=O)NC(C)c2ccccc2)c2ccccc2n1C (stereo unspecified),"inconclusive: 2.24 µM [inhibitor, full curve, poor fit]",–
CC(Sc1ccc(Cl)cc1)C(=O)NNC(=O)c1ccncc1 (stereo unspecified),–,inactive: -1.38%
Cc1cc(C)cc(C(=O)NCC(=O)OCC(=O)NC2CCCc3ccccc32)c1 (stereo unspecified),"inconclusive: 35.5 µM [inhibitor, partial curve, poor fit]",–

# Fetched by structure from the list above, 2 records:
SMILES,Potency,"activity change, negative = inhibition"
CCOC(=O)c1cnc(-n2cc(C)cn2)nc1Nc1ccccc1OC,–,inactive: -14.2%
OC[C@@H]1CNC[C@H]1c1nc(-c2cccnc2)no1,"inconclusive: 2.82 µM [inhibitor, partial curve, poor fit]",–
